Experimental data taken from the supplement of paper PMC3334620.
Whole data set: some 33,000 sequences, median “E-score (-0.5 to 0.5)” near -0.0059, cut for the highest 2% near 0.26. Some of the results follow.

What follows are sequences tested against T1, Cin5 (UniProt P40917) (assay: PBM E-score (8-mer binding enrichment) (E-score (-0.5 to 0.5)); higher = stronger / more preferred TF binding). Conditions: protein concentration: 100 nM; construct: GST-full length.
T1 sequence: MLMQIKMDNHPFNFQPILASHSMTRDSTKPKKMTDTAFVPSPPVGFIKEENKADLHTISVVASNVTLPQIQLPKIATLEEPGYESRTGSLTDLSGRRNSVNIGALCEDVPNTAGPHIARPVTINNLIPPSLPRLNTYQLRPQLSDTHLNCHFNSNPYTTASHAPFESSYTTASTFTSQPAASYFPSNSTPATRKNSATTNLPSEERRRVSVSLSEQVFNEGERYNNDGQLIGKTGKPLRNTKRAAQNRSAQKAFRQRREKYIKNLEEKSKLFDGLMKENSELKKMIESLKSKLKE
Outline: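 Detection of bound protein used fluorescent anti-GST, with scans normalised by masliner. The proteins were GST-tagged yeast transcription factors applied at about 100-200 nM to universal all-10-mer Agilent arrays made double-stranded by primer extension. Each ungapped eight-base word, pooled with its reverse complement, was scored with an E-score from the Universal PBM Analysis Suite.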

Row | Sequence | PBM E-score
1 | ACGGCGAG | -0.0102
2 | ACTCTAAA | 0.126
3 | CTGAAGTC | -0.0994
4 | CATAATCG | 0.324
5 | ATTAAGTC | 0.16
6 | AAGAGGTG | 0.12
7 | CTACCGCA | -0.122
8 | AGGTATTA | 0.209
9 | ACTACTAG | 0.158
10 | AGCGCGCT | 0.0943
11 | GCTTGCCA | -0.131
12 | TCGGCGAA | -0.0521
13 | AGGTGAGG | -0.0461
14 | CCCGGCAA | -0.0879
15 | GCCCTGCC | -0.0826
16 | AGAAGTCC | -0.278
17 | CTGAACGC | -0.113
18 | CAATACGC | 0.0195
19 | CCGGCCGG | 0.111
20 | GGTGACAA | 0.144
21 | GCATCACC | -0.0704
22 | TTCCTAAA | -0.157
23 | CACGTCAA | -0.236
24 | AATTGGTC | 0.16
25 | AGATCTAT | -0.126

Two entries from above, as tab-separated lines.
Row	Sequence	PBM E-score
4	CATAATCG	0.324
5	ATTAAGTC	0.16

Quoted at random: two records from the list, in no set order.
Row | Sequence | PBM E-score
10 | AGCGCGCT | 0.0943
25 | AGATCTAT | -0.126

Further records.

Row | Sequence | PBM E-score
26 | ATATCCAT | 0.137
27 | AGCGTGAC | -0.0875
28 | CAGGAACC | -0.184
29 | CTCTTCCC | -0.177
30 | AGGAGGAA | -0.233
31 | ACCCAAGT | 0.0713
32 | AACGATCG | 0.0832
33 | AACTAGTC | 0.107
34 | ATACTGGG | -0.0146
35 | AAGCTTGG | -0.128
36 | ACGCCATG | -0.108
37 | CGCTGGTA | -0.185
38 | AACCACCT | 0.157
39 | GCCAGGCA | -0.111
40 | GTATGATA | 0.275
41 | CACCCTTA | 0.00872
42 | ACGTCAAA | 0.0848
43 | AATATTAA | 0.304
44 | AGCCTAAT | -0.0343
45 | ATATATGA | 0.213
46 | AACAACGC | 0.042
47 | CGGTCCAG | -0.318
48 | CTTTCGTA | -0.00286
49 | ACGCTAGG | -0.227
50 | GACGTACC | -0.0136

Row | Sequence | PBM E-score
51 | AGCTCTTG | -0.0812
52 | ATTAAAGG | 0.121
53 | ACGGCGGC | -0.0817
54 | AGTGCTGA | 0.0175
55 | ACGAACCG | -0.00289
56 | CCCTTACC | -0.182
57 | GAAACTTC | -0.00897
58 | ATCCGTCC | 0.0049
59 | CGGGTACC | -0.131
60 | ATTTCCAC | 0.188
61 | GGAACGTA | 0.00228
62 | CGCGGAAG | 0.0415
63 | GCATTGCC | -0.219
64 | ACCGGTGC | -0.171
65 | AATAGTTC | 0.0923
66 | AATAACTC | 0.238
67 | CCGCTAAA | -0.0853
68 | CCCAGCCC | -0.156
69 | AAGTATCG | -0.0386
70 | GGATCCAA | 0.104
71 | TACGCGAA | 0.0591
72 | CATGATGA | 0.173
73 | AGGCTAGG | -0.221
74 | AAGGCGGT | -0.0593
75 | CGATCATC | -0.00224

Row | Sequence | PBM E-score
76 | TTGCACAA | 0.0773
77 | AGCATGTG | 0.042
78 | CAACAGGC | -0.129
79 | AATCCAGT | 0.199
80 | CCTTAGGA | 0.0118
81 | TATTTCAA | 0.193
82 | AGGTCTTG | -0.202
83 | AAGGGGGA | -0.396
84 | ATTGTATA | 0.222
85 | TGGCAACA | 0.0384
86 | CGGAGGAA | -0.277
87 | AAAGTTGC | 0.0362
88 | TACCGTCA | -0.0436
89 | TAGCTCAA | -0.135
90 | TGAGCGCA | -0.0761
91 | CGCCCAGA | -0.17
92 | AGGGCCCC | -0.322
93 | AGGGGTCC | -0.268
94 | ACCGTTTG | -0.119
95 | CCTGGCGA | -0.137
96 | GCGAGCGC | -0.237
97 | GCACTCAC | -0.0797
98 | GGCTTAAA | -0.00936
99 | CATTGGGC | -0.262
100 | ATCCTTCA | 0.0404

Row | Sequence | PBM E-score
101 | GACTTCAC | -0.00382
102 | CGTCCACC | -0.212
103 | AAAACAAT | 0.207
104 | CTCTCAAA | 0.0568
105 | ATAACAGC | 0.0831
106 | CCACGTTC | -0.134
107 | AAGCTGGT | 0.00012
108 | TGAAGCCA | -0.168
109 | ATTGCTTG | 0.177
110 | GGTAAGGA | -0.153
111 | AGACTCCA | -0.152
112 | AAGTACCA | 0.136
113 | TATAGGCA | -0.0979
114 | TAGTTGAA | 0.186
115 | GTCCAAGA | -0.308
116 | TCACGCCA | 0.0043
117 | AATAATAA | 0.305
118 | GCGTTTTA | -0.0549
119 | CACGATAC | -0.121
120 | AATTAAAT | 0.184
121 | CCATTTCC | 0.136
122 | CAGCCGAG | -0.0838
123 | GTTCGACA | 0.0859
124 | AGCTTTGG | -0.177
125 | AAACAGAT | 0.0983

An excerpt of these results, as comma-separated lines:
Row,Sequence,PBM E-score
111,AGACTCCA,-0.152
112,AAGTACCA,0.136
113,TATAGGCA,-0.0979
114,TAGTTGAA,0.186
115,GTCCAAGA,-0.308
116,TCACGCCA,0.0043

(next part)

Row | Sequence | PBM E-score
126 | ACGTAATG | 0.334
127 | CTGTCTCA | 0.0285
128 | CCGGCTCC | -0.233
129 | AGGGCCAC | -0.194
130 | AGTGCGGA | 0.223
131 | CAATATCC | 0.116
132 | ATCCCTGA | -0.0356
133 | AGGGTCCC | -0.346
134 | CCGAAAAG | 0.0796
135 | GCGAAGCC | -0.247
136 | CTGTTTCA | 0.0212
137 | ATGGGAGA | -0.0587
138 | TAAACTTA | 0.0539
139 | AGGCGCGG | -0.192
140 | GGAGAACC | -0.168
141 | GTGCCAAC | -0.0934
142 | CAGAGCGC | -0.267
143 | AGATCCAT | -0.121
144 | AAAATCGT | 0.123
145 | GCCTAGGA | -0.236
146 | CAATTGAG | 0.183
147 | CTGCTTGC | -0.12
148 | ACACCCCG | -0.248
149 | ACAGCACA | 0.00212
150 | CGGCTTTA | -0.0829

Row | Sequence | PBM E-score
151 | GCCCCGCA | -0.109
152 | ATCTGTAA | 0.023
153 | ACTTAGCT | -0.133
154 | ACCTGTCT | -0.0809
155 | AACTAACG | 0.072
156 | TACGGCCA | -0.0556
157 | GCGAGAAC | 0.0973
158 | GCATCCGA | -0.213
159 | AGTCGACC | -0.083
160 | ATGGGCAG | 0.039
161 | CCAAACGA | -0.0707
162 | CCCGAAGA | -0.127
163 | GGACTAAA | -0.0876
164 | CGATCGGC | 0.0129
165 | AATCAGAG | 0.112
166 | AAAGTCGC | 0.0786
167 | GTAACACA | 0.194
168 | CGGACTGA | -0.0989
169 | AACAGTAG | 0.101
170 | CGCCCCTA | 0.00558
171 | CAAGAGAA | 0.203
172 | ACGACGTC | -0.0462
